From doi:10.1101/2022.09.06.506542
Results are given in words; binding and its absence hold for the method and conditions named. Binding seen in cells or lysates may run through a third protein.

Protein sequences, listed by entry. Tags and fused reporters are not part of them.
UniProt P40763: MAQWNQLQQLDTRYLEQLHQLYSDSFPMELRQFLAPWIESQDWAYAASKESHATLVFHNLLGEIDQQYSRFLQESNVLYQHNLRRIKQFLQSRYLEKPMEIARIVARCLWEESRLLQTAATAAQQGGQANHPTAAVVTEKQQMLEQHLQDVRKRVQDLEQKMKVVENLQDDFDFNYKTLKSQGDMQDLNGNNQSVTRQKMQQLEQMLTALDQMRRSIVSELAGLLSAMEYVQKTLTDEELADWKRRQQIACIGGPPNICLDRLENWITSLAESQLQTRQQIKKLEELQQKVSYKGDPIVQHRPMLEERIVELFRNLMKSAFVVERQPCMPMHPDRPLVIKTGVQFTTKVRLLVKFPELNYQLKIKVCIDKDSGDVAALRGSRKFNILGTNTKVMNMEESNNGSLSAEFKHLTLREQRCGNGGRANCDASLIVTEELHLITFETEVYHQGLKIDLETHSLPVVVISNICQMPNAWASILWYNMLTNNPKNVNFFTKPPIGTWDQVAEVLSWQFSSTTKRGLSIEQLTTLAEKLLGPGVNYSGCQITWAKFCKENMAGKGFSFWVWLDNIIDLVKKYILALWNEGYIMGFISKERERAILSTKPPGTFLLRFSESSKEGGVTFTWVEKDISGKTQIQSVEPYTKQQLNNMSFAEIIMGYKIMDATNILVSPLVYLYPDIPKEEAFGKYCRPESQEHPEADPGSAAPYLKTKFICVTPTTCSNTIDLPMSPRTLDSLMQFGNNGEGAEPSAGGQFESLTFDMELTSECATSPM

Target: T1, ETV7 (UniProt Q9Y603)
T1 sequence: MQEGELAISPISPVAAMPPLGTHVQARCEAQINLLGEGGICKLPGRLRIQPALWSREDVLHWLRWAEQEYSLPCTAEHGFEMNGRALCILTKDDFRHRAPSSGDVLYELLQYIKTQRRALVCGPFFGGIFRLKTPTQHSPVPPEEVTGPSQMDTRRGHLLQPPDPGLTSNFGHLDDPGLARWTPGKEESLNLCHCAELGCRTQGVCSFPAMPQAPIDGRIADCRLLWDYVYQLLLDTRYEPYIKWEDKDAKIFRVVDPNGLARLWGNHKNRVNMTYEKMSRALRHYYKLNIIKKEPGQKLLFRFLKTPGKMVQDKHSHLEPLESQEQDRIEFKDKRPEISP
Assay: co-IP

Substance: phosphorylated STAT3 (from UniProt P40763 1-770)
- binding: no binding
